The results in this text go back to publication PMC5609771.

Chains of the proteins cited; added tags and fusions are not shown.
UniProt P17676: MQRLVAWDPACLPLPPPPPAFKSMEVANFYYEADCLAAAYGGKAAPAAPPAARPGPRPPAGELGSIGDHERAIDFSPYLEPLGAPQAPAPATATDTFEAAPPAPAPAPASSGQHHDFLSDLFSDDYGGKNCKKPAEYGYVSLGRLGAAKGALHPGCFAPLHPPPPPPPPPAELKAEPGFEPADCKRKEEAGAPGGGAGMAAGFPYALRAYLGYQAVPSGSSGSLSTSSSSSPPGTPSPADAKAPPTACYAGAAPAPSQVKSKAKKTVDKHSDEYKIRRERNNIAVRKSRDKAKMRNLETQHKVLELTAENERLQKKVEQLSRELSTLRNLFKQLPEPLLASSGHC
UniProt P05412: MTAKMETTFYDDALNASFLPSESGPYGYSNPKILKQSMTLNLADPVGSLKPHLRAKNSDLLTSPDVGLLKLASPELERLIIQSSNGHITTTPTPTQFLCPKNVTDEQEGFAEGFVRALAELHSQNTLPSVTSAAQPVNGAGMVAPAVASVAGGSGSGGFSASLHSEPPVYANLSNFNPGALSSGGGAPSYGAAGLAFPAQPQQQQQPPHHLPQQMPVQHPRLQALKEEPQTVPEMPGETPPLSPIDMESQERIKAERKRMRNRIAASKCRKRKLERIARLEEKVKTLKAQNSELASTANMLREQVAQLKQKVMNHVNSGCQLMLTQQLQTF

The target in assay [1] is CCAAT/enhancer binding protein β (human) (UniProt P17676). The assay can be described thus: co-IP; lysate of transfected HNPE cells (500 μg protein, hypotonic buffer 20 mM Tris pH 7.4, 10 mM EDTA); precipitated with mouse monoclonal anti-C/EBPβ at 4°C overnight and Protein A/G magnetic beads; blot with rabbit anti-c-Jun.
The target is the same in assay [2]. Description: co-IP; ex vitro mixture of two HNPE lysates, one with overexpressed c-Jun and one with overexpressed C/EBPβ; precipitated with mouse anti-C/EBPβ; blot with rabbit anti-c-Jun.

No constants are given. Whether binding was seen depends on the method and setting. Binding seen in cells or lysates may run through a third protein. Some entries that bind do so weakly or less than the wild type.

For “c-Jun (endogenous) (from UniProt P05412 1-331)”, the binding entry in assay [1] is given as “binds”.
Consider c-Jun (from UniProt P05412 1-331), for which the binding entry in assay [2] and in assay [1] was “binds” throughout.
